We go through one substance from paper PMC8885422.

Amino acid sequences for entries named in this document (tags omitted). A change or cut given only in a name is not applied to a line headed by its entry.
UniProt P32927: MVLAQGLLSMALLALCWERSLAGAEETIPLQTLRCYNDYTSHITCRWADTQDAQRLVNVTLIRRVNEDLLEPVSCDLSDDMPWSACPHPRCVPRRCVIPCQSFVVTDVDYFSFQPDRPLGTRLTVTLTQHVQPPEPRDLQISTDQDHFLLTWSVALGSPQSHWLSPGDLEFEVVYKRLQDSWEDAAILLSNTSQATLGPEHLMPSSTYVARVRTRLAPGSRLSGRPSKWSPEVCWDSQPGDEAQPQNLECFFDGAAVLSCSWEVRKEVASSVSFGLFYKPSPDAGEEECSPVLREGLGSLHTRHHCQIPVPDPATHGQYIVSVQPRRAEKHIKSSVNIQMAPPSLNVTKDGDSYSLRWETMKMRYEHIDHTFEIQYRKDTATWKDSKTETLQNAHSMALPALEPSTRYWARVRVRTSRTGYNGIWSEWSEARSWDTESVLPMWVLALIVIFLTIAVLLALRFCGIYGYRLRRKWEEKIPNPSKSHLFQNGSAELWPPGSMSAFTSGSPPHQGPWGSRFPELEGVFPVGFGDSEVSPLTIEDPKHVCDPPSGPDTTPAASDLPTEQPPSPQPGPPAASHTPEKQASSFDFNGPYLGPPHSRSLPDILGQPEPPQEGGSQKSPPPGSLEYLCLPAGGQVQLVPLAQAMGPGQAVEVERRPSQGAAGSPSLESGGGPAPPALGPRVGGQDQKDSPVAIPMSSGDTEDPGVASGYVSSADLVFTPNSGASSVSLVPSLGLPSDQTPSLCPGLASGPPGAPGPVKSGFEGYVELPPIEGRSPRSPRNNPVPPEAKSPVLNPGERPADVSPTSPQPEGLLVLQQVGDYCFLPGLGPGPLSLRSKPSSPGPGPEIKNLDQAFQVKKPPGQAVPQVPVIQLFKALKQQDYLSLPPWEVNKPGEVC

No constants are given. Whether binding was seen depends on the method and setting. In cells and extracts the contact can be indirect. Binding can be weak; no strength is given. Tags and fused reporters may be left off the sequences shown.

This assay deals with T1, GST-tagged CSF2RB fragment aa461-473 (human) (UniProt P32927).
T1 sequence: RFCGIYGYRLRRK
As to the kind of experiment: pull-down; GST-tagged fragment on glutathione-sepharose beads incubated with the in vitro translated cytoplasmic domain of the other receptor overnight at 4 °C; western blot; only the target purified. For orientation: A western blot detects proteins with antibodies after separation by electrophoresis.

With “in vitro translated intracellular domain of FLT3-ITD (domain or fragment)”, the binding entry is “binds”.
